Test results reported in the supplement of paper PMC6411743.
± gives the standard deviation of the averaged measurements. The list shows a part of the results, in another mix than the full data.

The chains behind the UniProt entries cited, without tags or fusion partners. Where a name states a change or a piece, a line headed by the entry shows the natural chain unless it says otherwise.
UniProt Q15061: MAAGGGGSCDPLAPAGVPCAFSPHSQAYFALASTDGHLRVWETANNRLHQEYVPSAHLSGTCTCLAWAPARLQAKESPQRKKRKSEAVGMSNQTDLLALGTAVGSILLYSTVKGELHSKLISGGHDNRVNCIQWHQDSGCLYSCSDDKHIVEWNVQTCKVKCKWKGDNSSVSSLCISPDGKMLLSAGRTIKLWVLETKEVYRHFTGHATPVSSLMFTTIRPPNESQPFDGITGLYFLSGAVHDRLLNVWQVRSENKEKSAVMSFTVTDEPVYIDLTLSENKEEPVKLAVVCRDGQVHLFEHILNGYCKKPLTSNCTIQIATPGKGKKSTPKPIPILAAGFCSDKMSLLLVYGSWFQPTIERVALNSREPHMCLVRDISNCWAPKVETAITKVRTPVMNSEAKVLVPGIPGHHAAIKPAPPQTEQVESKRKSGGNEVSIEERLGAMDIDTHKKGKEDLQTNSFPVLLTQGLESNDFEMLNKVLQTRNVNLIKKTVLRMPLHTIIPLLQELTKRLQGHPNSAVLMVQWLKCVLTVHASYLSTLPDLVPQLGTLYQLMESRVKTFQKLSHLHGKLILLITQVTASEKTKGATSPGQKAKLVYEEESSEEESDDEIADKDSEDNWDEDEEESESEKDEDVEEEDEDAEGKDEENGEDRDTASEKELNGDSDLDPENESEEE
UniProt Q3V6T2: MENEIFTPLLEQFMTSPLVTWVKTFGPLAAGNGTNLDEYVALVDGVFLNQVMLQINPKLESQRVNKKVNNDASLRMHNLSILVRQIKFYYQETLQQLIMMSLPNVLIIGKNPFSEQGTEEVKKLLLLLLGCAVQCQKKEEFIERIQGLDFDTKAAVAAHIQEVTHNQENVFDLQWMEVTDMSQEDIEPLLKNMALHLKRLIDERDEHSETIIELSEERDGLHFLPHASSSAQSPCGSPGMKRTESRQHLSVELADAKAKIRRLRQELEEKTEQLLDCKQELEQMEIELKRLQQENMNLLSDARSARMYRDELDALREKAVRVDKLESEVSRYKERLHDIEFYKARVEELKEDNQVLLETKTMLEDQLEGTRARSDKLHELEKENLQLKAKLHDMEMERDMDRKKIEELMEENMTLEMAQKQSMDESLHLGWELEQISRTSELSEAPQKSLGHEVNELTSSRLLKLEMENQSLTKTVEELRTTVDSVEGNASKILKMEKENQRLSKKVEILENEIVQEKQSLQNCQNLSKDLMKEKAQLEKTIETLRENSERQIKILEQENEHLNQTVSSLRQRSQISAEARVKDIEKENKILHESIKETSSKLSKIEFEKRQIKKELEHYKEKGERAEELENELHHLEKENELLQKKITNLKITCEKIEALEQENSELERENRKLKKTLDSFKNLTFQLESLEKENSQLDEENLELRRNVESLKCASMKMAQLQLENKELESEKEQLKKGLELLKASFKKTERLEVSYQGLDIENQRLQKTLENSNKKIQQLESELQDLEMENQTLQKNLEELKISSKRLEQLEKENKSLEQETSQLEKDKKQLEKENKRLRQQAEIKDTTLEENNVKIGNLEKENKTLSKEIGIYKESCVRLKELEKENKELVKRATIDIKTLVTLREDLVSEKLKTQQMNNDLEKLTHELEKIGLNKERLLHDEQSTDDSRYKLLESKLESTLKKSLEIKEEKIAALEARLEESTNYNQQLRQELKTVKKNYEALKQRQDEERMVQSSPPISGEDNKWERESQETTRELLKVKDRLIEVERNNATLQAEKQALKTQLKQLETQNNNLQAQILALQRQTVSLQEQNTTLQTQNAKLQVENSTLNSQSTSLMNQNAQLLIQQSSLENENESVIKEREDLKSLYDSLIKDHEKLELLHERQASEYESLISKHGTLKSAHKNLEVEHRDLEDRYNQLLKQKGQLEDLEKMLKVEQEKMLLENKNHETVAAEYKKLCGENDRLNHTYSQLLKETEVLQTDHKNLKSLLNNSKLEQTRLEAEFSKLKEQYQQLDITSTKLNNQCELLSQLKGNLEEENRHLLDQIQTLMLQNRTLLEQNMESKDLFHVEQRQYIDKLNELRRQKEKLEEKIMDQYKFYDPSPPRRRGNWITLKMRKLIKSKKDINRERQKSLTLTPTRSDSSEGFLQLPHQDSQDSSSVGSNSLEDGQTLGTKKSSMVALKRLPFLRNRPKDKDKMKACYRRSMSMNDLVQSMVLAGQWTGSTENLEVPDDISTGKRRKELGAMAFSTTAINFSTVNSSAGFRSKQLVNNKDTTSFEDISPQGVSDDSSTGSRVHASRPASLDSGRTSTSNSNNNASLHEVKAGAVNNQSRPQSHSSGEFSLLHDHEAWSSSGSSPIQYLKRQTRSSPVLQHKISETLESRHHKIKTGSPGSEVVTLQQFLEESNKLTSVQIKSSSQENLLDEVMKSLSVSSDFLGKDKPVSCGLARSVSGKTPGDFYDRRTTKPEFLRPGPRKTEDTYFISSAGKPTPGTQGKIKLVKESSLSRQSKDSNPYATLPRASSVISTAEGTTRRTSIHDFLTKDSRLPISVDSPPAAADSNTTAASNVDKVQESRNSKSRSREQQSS
UniProt Q15154: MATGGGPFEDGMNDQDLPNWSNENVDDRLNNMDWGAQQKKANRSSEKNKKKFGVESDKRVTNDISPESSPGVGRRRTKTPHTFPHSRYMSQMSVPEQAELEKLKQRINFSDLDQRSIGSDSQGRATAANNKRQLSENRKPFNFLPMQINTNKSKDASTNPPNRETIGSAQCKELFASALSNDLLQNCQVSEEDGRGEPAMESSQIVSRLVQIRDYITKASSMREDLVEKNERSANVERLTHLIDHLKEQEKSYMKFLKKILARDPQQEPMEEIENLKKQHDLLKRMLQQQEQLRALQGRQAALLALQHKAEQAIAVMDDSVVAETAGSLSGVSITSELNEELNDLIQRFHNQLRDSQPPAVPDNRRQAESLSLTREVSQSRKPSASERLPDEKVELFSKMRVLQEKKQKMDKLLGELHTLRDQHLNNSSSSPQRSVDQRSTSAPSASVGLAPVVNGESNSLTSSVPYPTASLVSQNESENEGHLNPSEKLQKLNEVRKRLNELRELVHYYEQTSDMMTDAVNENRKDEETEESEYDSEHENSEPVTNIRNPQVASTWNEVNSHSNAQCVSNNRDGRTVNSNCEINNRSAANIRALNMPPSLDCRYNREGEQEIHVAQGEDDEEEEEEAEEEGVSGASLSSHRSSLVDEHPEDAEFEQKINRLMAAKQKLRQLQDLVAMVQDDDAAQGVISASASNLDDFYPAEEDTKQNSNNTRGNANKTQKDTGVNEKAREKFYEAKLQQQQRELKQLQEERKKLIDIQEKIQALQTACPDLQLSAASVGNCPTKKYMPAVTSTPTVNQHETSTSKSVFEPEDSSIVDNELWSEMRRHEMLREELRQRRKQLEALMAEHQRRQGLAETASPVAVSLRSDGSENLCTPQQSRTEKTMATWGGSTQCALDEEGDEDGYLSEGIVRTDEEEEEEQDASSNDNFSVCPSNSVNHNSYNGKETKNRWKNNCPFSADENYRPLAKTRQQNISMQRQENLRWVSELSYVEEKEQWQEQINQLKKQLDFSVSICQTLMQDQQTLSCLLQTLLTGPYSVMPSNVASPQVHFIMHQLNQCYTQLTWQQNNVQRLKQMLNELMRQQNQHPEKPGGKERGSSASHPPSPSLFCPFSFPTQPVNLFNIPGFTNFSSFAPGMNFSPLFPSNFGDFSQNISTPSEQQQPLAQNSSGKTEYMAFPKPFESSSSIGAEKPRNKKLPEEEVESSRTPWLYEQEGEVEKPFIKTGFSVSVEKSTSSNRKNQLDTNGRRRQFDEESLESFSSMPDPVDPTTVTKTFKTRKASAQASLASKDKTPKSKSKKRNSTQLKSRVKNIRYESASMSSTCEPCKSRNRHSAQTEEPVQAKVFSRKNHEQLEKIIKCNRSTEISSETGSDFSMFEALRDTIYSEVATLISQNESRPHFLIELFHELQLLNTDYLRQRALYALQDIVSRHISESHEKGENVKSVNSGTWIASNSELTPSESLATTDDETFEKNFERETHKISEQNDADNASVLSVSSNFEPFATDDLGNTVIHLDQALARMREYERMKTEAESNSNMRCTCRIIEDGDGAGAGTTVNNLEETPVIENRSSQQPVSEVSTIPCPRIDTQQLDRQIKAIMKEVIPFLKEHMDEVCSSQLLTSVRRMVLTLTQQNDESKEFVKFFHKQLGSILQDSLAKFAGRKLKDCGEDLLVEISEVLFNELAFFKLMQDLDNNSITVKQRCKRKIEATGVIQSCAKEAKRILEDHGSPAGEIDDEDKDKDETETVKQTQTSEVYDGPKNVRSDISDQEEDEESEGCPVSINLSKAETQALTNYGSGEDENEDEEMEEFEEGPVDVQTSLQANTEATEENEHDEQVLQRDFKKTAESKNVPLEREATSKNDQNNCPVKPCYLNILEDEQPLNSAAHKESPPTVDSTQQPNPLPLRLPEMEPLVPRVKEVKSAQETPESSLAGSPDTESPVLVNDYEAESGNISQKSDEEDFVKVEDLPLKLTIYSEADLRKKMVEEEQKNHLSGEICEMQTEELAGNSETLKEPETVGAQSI
UniProt Q4J6C6, whole entry: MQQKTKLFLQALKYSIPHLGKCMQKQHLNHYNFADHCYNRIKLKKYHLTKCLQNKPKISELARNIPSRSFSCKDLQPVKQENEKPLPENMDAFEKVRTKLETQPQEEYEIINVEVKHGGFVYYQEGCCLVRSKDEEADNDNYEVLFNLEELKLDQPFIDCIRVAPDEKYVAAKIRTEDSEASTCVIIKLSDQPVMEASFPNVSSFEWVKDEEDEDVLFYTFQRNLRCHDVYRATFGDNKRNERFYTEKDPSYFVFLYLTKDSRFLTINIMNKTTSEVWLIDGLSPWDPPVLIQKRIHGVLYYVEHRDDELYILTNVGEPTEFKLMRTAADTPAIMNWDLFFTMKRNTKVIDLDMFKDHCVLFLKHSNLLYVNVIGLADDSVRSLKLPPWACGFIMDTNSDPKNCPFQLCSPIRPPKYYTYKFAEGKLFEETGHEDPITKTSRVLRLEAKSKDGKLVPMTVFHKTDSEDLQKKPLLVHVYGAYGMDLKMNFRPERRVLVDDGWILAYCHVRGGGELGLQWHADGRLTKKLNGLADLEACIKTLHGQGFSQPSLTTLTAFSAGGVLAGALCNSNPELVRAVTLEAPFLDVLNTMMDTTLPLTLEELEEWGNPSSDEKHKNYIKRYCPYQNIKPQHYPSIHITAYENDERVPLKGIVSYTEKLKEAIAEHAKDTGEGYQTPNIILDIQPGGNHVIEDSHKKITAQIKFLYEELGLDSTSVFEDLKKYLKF
UniProt Q14691: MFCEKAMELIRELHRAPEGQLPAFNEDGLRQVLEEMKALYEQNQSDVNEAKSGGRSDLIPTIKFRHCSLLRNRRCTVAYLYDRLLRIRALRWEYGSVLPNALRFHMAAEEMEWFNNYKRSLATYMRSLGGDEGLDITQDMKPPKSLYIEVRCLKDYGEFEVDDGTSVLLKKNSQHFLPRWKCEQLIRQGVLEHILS
UniProt Q16566: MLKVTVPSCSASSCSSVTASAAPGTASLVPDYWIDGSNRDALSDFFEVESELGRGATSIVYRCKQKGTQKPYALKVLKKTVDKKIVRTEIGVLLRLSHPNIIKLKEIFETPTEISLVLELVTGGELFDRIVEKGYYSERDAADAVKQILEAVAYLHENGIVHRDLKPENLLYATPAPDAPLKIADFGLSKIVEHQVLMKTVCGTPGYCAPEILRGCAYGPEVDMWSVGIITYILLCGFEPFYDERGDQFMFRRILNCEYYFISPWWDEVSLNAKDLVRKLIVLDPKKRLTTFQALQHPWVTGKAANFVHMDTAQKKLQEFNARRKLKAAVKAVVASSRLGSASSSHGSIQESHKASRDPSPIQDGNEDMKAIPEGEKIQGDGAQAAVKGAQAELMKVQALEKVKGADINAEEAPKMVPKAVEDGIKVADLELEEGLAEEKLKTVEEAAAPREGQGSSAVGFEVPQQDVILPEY
UniProt Q15286: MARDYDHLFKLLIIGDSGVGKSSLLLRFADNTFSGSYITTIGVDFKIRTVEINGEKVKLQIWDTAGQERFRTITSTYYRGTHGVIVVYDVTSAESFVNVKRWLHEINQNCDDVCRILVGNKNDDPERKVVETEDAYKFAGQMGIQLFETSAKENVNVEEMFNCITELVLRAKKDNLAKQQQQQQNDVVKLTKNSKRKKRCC
UniProt Q2M296: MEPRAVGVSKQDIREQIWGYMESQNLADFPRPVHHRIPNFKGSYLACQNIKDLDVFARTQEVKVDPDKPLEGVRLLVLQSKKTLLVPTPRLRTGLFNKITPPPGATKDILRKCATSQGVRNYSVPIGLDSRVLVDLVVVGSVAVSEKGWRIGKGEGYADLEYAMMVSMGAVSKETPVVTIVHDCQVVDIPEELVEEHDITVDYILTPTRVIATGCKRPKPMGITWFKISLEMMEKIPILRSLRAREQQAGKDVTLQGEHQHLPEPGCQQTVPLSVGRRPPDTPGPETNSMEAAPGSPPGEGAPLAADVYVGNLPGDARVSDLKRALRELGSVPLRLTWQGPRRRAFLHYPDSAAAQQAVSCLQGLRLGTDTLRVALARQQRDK

Each target was assayed with Nc1ncnc2c1ncn2[C@@H]1O[C@H](COP(=O)(O)OP(=O)(O)OP(=O)(O)O)[C@@H](O)[C@H]1O [adenosine triphosphate] (assay: NP40-soluble protein abundance relative to vehicle (solubility fold change) (ratio); higher = more soluble protein in presence of ATP). Conditions: concentration: 2mM.
How it was run: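 Jurkat crude lysate (Dounce-homogenised) was treated with eight concentrations from 0.1 to 10 mM for 10 min at room temperature, then 3 min at 37 °C. It was solubilised with 0.8% NP40 and benzonase (60 min, 4 °C) and ultracentrifuged, and the supernatant was TMT-labelled for LC-MS/MS. Intensities were vsn-normalised, and the value is the fold change against the NP40-processed vehicle per replicate, from three independent experiments.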
ZNF146 (UniProt Q15072) was tested, and the NP40-soluble protein abundance was 0.986 ± 0.082.
Work on DPYSL2 (UniProt Q16555) yielded an NP40-soluble protein abundance of 0.994 ± 0.02.
Target HERC1 (UniProt Q15751) has an NP40-soluble protein abundance of 1 ± 0.031.
WDR43 (UniProt Q15061) gave an NP40-soluble protein abundance of 1.11 ± 0.015.
In the case of UniProt Q3V6T2 and related entries, the NP40-soluble protein abundance is reported as 1 ± 0.038.
With UniProt Q15154 and related entries the NP40-soluble protein abundance was 1 ± 0.051.
PPP2R5A (UniProt Q15172) showed an NP40-soluble protein abundance of 1.03 ± 0.053.
With UniProt Q16643 and related entries the NP40-soluble protein abundance was 0.681 ± 0.047.
UniProt Q15365 was tested, and the NP40-soluble protein abundance was 1.01 ± 0.032.
With UniProt Q16659 the NP40-soluble protein abundance was 0.971 ± 0.13.
In the case of SEC23B (UniProt Q15437), the NP40-soluble protein abundance is reported as 1.02 ± 0.086.
Work on UniProt Q17R31 and related entries yielded an NP40-soluble protein abundance of 1.01 ± 0.027.
For DDB1 (UniProt Q16531), the NP40-soluble protein abundance was 1.02 ± 0.085.
For UniProt Q1W6H9, the NP40-soluble protein abundance was 1.16 ± 0.051.
Target RASA3 (UniProt Q14644) has an NP40-soluble protein abundance of 0.967 ± 0.029.
SUZ12 (UniProt Q15022) gave an NP40-soluble protein abundance of 1.17 ± 0.03.
With IAH1 (UniProt Q2TAA2) the NP40-soluble protein abundance was 1.02 ± 0.043.
UniProt Q4J6C6 and related entries gave an NP40-soluble protein abundance of 1.04 ± 0.07.

Same assay, conditions: concentration: 4mM
Work on UniProt Q15006 yielded an NP40-soluble protein abundance of 0.985 ± 0.021.
UniProt Q1ED39 gave an NP40-soluble protein abundance of 1.12 ± 0.032.
For NONO (UniProt Q15233), the NP40-soluble protein abundance was 1.41 ± 0.035.
With GNPTAB (UniProt Q3T906) the NP40-soluble protein abundance was 0.975 ± 0.07.
GINS1 (UniProt Q14691) gave an NP40-soluble protein abundance of 0.961 ± 0.022.
QPRT (UniProt Q15274) was tested, and the NP40-soluble protein abundance was 0.931 ± 0.024.
In the case of UniProt Q14978-2, the NP40-soluble protein abundance is reported as 0.824 ± 0.049.
For UniProt Q14934 and related entries, the NP40-soluble protein abundance was 1.06 ± 0.15.
CAMK4 (UniProt Q16566) was tested, and the NP40-soluble protein abundance was 0.933 ± 0.019.
UniProt Q15208 gave an NP40-soluble protein abundance of 1.09 ± 0.043.
Target UniProt Q15084 and related entries has an NP40-soluble protein abundance of 0.876 ± 0.024.
Work on UniProt Q14CB8 and related entries yielded an NP40-soluble protein abundance of 1.25 ± 0.13.
With UniProt Q3ZCQ8 and related entries the NP40-soluble protein abundance was 0.997 ± 0.073.
For UniProt Q15286 and related entries, the NP40-soluble protein abundance was 1.01 ± 0.081.
In the case of UniProt Q2M296 and related entries, the NP40-soluble protein abundance is reported as 1.2 ± 0.11.
Work on “UniProt Q15642-2|Q15642-3|Q15642-4|W4VSQ9” yielded an NP40-soluble protein abundance of 0.998 ± 0.058.
In the case of “Q1RLN5 and related entries (UniProt Q8IWW6)”, the NP40-soluble protein abundance is reported as 1.06 ± 0.083.
Work on UBXN2B (UniProt Q14CS0) yielded an NP40-soluble protein abundance of 1 ± 0.05.
Work on ZNF146 (UniProt Q15072) yielded an NP40-soluble protein abundance of 1.03 ± 0.03.
Work on DPYSL2 (UniProt Q16555) yielded an NP40-soluble protein abundance of 0.979 ± 0.031.
HERC1 (UniProt Q15751) was tested, and the NP40-soluble protein abundance was 0.984 ± 0.023.
WDR43 (UniProt Q15061) showed an NP40-soluble protein abundance of 1.26 ± 0.063.
Work on UniProt Q3V6T2 and related entries yielded an NP40-soluble protein abundance of 0.987 ± 0.022.
In the case of UniProt Q15154 and related entries, the NP40-soluble protein abundance is reported as 1.04 ± 0.048.
PPP2R5A (UniProt Q15172) showed an NP40-soluble protein abundance of 1.01 ± 0.06.
Work on UniProt Q16643 and related entries yielded an NP40-soluble protein abundance of 0.728 ± 0.066.
Target UniProt Q15365 has an NP40-soluble protein abundance of 1.014 ± 0.0066.
With UniProt Q16659 the NP40-soluble protein abundance was 1.03 ± 0.097.
In the case of SEC23B (UniProt Q15437), the NP40-soluble protein abundance is reported as 1.05 ± 0.098.
UniProt Q17R31 and related entries showed an NP40-soluble protein abundance of 1.03 ± 0.024.
DDB1 (UniProt Q16531) showed an NP40-soluble protein abundance of 0.998 ± 0.093.
For UniProt Q1W6H9, the NP40-soluble protein abundance was 1.08 ± 0.029.
In the case of RASA3 (UniProt Q14644), the NP40-soluble protein abundance is reported as 0.958 ± 0.042.
For SUZ12 (UniProt Q15022), the NP40-soluble protein abundance was 1.24 ± 0.053.
For IAH1 (UniProt Q2TAA2), the NP40-soluble protein abundance was 0.963 ± 0.028.
Work on UniProt Q4J6C6 and related entries yielded an NP40-soluble protein abundance of 1.02 ± 0.088.
